# ± gives the standard deviation of the averaged measurements. Only a part is listed here, and it is no random draw. Small differences around the control level are noise.
# Chains of the proteins cited; added tags and fusions are not shown. Lines headed by an entry give the natural chain unless they say otherwise; changes in a name come on top.
# UniProt Q4FZB7: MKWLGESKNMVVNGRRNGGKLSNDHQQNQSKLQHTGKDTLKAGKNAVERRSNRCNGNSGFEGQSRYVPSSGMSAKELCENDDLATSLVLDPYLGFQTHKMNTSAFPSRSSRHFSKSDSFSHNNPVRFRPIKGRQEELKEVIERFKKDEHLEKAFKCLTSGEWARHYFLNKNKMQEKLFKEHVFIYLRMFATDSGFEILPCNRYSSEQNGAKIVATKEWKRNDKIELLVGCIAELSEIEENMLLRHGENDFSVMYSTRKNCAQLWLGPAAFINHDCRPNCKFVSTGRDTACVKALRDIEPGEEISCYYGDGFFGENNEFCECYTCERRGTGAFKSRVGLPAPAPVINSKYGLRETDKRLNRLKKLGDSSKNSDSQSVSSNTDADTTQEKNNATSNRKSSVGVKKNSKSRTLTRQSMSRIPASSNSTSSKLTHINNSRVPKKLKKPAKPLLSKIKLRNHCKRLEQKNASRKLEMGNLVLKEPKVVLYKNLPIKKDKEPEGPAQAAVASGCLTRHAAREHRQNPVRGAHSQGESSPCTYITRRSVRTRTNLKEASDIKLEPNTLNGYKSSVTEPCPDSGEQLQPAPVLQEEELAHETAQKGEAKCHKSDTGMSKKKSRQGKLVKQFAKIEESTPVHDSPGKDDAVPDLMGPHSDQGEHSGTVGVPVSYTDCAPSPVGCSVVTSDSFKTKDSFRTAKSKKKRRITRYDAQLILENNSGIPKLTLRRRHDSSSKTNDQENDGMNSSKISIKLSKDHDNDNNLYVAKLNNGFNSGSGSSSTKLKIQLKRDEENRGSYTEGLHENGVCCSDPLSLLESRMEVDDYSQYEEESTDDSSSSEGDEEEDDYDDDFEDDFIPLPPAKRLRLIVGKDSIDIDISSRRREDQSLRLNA
# UniProt Q16611: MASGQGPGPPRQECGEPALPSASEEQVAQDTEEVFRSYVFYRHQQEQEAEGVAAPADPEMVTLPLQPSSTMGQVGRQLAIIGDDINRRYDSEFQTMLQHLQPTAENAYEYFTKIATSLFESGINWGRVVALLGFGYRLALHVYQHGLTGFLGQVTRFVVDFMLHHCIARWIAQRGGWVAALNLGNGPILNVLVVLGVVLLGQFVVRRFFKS
# UniProt Q15276: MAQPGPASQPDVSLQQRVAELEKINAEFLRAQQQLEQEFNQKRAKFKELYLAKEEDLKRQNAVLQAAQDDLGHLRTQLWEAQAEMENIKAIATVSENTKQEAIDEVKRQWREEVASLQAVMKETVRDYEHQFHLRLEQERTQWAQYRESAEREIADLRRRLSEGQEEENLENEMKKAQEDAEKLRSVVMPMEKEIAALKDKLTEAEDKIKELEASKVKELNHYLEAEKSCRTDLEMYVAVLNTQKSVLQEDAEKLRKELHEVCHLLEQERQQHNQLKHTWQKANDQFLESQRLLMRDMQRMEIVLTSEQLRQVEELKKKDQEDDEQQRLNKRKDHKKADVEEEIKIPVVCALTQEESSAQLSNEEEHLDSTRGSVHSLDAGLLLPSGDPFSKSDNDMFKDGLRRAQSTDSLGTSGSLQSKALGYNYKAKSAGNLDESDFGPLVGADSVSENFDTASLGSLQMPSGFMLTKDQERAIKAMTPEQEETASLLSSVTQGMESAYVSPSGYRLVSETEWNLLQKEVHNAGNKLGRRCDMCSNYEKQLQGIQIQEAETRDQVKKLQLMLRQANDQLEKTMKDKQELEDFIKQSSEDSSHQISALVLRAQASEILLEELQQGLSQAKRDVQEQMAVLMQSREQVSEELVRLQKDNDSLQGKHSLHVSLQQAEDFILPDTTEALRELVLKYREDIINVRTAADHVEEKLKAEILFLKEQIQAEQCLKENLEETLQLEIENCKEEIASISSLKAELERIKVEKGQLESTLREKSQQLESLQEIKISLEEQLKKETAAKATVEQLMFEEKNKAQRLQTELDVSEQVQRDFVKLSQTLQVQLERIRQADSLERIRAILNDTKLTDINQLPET
# UniProt Q2NKX8: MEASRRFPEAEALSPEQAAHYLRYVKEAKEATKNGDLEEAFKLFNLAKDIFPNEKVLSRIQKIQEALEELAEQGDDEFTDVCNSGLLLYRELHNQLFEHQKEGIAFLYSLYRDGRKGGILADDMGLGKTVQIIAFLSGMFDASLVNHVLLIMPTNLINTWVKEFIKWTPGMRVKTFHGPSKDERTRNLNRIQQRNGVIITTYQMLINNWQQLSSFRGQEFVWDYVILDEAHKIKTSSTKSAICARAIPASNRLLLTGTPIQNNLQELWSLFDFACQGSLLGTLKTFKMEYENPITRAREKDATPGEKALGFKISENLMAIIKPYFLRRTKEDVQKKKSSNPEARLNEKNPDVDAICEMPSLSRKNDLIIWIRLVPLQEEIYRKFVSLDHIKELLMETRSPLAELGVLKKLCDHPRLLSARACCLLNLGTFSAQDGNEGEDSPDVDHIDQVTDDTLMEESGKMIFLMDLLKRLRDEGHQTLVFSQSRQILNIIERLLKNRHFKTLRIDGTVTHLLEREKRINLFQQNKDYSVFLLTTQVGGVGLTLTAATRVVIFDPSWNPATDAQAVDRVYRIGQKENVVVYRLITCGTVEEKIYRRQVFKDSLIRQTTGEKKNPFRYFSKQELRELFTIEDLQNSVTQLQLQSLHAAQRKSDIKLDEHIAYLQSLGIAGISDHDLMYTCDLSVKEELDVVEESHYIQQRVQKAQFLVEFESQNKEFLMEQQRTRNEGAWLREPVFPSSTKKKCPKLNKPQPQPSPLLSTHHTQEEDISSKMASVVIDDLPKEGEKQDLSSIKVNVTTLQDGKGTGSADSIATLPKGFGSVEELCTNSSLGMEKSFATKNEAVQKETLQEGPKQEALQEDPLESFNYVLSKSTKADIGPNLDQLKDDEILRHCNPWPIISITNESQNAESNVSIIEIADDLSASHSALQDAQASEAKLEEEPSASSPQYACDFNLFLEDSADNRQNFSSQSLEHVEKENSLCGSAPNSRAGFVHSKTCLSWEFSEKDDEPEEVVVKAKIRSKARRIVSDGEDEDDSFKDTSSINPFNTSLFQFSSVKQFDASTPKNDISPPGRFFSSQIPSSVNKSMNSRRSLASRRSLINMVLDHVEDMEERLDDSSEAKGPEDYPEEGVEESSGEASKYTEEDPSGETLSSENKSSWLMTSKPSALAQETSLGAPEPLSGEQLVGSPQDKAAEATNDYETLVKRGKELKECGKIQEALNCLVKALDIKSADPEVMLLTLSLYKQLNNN
# UniProt Q16630, whole entry: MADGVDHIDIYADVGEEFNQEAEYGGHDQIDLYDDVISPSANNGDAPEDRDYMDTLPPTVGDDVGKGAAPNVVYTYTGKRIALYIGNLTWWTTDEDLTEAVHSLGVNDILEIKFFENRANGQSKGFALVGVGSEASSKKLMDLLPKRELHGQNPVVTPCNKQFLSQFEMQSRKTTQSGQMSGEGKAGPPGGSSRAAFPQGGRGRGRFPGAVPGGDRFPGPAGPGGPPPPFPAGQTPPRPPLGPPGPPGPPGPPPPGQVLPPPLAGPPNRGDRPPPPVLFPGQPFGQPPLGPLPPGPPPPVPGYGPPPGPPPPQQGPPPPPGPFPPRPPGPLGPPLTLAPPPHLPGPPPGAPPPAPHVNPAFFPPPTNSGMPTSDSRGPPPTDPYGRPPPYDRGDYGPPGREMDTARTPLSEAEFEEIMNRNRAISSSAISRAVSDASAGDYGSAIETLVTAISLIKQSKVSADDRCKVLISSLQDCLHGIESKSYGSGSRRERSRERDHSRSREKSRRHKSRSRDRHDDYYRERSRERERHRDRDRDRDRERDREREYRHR
# UniProt Q14146: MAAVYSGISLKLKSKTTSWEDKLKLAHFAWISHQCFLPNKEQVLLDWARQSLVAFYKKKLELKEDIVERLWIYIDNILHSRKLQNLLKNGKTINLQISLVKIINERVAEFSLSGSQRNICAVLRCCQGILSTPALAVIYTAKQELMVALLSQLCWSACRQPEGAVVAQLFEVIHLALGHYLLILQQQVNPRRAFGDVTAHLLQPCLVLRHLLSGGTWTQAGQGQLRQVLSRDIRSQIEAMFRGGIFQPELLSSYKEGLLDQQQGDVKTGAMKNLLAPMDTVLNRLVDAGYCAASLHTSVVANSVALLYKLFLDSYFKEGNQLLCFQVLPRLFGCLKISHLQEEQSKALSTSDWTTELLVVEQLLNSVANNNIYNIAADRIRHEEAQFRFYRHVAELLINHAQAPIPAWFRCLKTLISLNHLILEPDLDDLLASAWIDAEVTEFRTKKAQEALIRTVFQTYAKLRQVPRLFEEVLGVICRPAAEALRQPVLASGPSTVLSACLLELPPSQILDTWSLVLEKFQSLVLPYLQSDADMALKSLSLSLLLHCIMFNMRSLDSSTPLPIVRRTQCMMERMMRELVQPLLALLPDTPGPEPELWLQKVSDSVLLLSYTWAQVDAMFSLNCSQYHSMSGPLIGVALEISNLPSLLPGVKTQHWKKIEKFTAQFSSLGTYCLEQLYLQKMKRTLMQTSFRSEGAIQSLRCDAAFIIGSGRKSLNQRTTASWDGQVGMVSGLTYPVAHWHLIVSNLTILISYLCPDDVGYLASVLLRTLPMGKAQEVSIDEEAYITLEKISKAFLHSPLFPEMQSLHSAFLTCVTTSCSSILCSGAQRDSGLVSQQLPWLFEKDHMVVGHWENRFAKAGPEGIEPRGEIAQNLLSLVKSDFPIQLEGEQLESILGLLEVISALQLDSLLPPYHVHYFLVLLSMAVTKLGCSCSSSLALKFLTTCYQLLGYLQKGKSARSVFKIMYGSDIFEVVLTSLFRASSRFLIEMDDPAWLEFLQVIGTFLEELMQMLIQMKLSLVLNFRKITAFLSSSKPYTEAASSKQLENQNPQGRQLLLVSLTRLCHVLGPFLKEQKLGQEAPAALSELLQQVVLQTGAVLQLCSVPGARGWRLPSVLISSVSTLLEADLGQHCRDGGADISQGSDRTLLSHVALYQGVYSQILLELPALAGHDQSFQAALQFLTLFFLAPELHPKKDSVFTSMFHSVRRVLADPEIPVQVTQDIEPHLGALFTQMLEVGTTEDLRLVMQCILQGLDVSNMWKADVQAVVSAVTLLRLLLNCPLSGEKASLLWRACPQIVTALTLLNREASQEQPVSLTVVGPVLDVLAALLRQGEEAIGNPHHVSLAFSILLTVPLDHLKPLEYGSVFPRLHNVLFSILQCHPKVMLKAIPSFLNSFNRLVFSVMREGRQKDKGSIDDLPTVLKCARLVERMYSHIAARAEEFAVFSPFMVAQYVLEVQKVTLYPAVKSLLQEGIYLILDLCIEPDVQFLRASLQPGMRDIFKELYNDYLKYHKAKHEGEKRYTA
# UniProt Q3MII6: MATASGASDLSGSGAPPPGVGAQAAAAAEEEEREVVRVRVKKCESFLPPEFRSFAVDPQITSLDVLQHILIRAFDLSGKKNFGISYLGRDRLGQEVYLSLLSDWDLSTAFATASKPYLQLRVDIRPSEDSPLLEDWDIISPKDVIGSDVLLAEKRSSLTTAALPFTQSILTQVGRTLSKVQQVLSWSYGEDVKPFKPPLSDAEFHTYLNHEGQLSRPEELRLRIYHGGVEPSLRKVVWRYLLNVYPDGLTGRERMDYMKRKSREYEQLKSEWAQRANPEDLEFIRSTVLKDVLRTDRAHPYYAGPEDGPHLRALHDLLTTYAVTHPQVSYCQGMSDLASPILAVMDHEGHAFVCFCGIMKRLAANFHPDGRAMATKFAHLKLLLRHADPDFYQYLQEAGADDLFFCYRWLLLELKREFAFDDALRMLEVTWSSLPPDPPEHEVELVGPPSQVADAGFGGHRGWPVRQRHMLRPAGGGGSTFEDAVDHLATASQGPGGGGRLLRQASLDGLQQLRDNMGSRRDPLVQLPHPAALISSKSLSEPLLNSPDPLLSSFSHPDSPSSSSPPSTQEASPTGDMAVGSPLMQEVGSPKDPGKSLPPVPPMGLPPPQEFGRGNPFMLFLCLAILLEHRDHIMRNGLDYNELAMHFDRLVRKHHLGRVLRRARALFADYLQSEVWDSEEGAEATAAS
# UniProt Q14657: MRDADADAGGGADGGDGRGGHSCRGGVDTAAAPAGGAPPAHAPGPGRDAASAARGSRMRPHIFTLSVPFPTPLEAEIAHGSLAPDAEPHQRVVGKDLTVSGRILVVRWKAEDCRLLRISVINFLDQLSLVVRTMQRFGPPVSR
# UniProt Q15172: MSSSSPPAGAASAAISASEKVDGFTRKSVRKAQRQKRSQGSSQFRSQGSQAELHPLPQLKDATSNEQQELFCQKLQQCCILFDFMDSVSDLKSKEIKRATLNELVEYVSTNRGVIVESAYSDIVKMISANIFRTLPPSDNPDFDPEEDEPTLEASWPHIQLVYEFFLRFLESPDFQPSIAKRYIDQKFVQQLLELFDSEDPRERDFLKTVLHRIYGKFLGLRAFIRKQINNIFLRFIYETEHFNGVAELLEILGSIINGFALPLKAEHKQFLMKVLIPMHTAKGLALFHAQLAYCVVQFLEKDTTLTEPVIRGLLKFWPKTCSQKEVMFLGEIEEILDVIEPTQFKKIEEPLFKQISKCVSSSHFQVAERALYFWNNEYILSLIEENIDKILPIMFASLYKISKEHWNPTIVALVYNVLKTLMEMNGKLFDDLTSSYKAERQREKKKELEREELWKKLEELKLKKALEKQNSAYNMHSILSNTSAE
# Compound: Nc1ncnc2c1ncn2[C@@H]1O[C@H](COP(=O)(O)OP(=O)(O)OP(=O)(O)O)[C@@H](O)[C@H]1O [adenosine triphosphate]
# Assay: NP40-soluble protein abundance relative to vehicle (solubility fold change) (ratio); higher = more soluble protein in presence of ATP
# Method in brief: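 In three independent experiments, Jurkat crude lysate made by Dounce homogenisation was treated for 10 min at room temperature and then 3 min at 37 °C with eight concentrations ranging from 0.1 to 10 mM. It was then solubilised with 0.8% NP40 plus benzonase for 60 min at 4 °C and ultracentrifuged. The supernatant was TMT-labelled for LC-MS/MS, and each value is the fold change against the detergent-processed vehicle for the same replicate, using vsn-normalised intensities.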
Target,NP40-soluble protein abundance (concentration: 0.1mM),NP40-soluble protein abundance (concentration: 0.5mM),NP40-soluble protein abundance (concentration: 1mM),NP40-soluble protein abundance (concentration: 2mM),NP40-soluble protein abundance (concentration: 4mM),NP40-soluble protein abundance (concentration: 6mM),NP40-soluble protein abundance (concentration: 8mM),NP40-soluble protein abundance (concentration: 10mM)
UniProt Q4FZB7,0.968 ± 0.17,1.01 ± 0.14,0.985 ± 0.15,1.1 ± 0.23,1.07 ± 0.11,1.01 ± 0.16,1.01 ± 0.029,0.983 ± 0.065
UniProt Q16611 and related entries,0.951 ± 0.034,0.91 ± 0.1,1.01 ± 0.036,0.985 ± 0.023,1.02 ± 0.09,1.05 ± 0.045,0.997 ± 0.077,0.993 ± 0.087
PDCD11 (UniProt Q14690),1.01 ± 0.032,1.06 ± 0.039,1.09 ± 0.092,1.14 ± 0.056,1.29 ± 0.062,1.5 ± 0.13,1.75 ± 0.073,2.06 ± 0.15
RABEP1 (UniProt Q15276),0.958 ± 0.019,0.985 ± 0.047,0.942 ± 0.049,0.944 ± 0.032,0.928 ± 0.021,0.995 ± 0.054,0.895 ± 0.016,0.9135 ± 0.0042
TOMM20 (UniProt Q15388),0.801 ± 0.18,0.82 ± 0.26,0.921 ± 0.086,0.896 ± 0.044,0.903 ± 0.11,0.886 ± 0.041,0.8947 ± 0.0073,0.803 ± 0.21
ZNF672 (UniProt Q499Z4),0.985 ± 0.06,1.12 ± 0.17,0.994 ± 0.061,1.07 ± 0.0039,1 ± 0.089,0.93 ± 0.078,0.996 ± 0.047,0.995 ± 0.016
UniProt Q16181 and related entries,1.01 ± 0.057,1.02 ± 0.095,0.891 ± 0.15,0.979 ± 0.023,0.9086 ± 0.0056,0.963 ± 0.076,0.957 ± 0.026,0.911 ± 0.046
MDC1 (UniProt Q14676),1.075 ± 0.0064,1.34 ± 0.028,1.45 ± 0.11,1.57 ± 0.11,1.74 ± 0.13,1.89 ± 0.18,1.88 ± 0.13,1.99 ± 0.15
RALBP1 (UniProt Q15311),1.04 ± 0.0038,1.08 ± 0.061,–,–,–,–,–,–
ERCC6L (UniProt Q2NKX8),1.02 ± 0.05,1.03 ± 0.044,0.999 ± 0.024,0.986 ± 0.026,0.971 ± 0.024,0.999 ± 0.033,0.966 ± 0.0079,0.978 ± 0.017
UniProt Q16630 and related entries,1.16 ± 0.075,2.02 ± 0.12,2.36 ± 0.24,2.68 ± 0.27,2.89 ± 0.3,3.09 ± 0.32,3.03 ± 0.2,3.05 ± 0.28
UniProt Q14289 and related entries,1.04 ± 0.036,1.06 ± 0.072,1.03 ± 0.04,1.04 ± 0.042,1.02 ± 0.04,0.981 ± 0.06,1.01 ± 0.04,1 ± 0.064
UniProt Q15560 and related entries,1.08 ± 0.1,0.971 ± 0.055,–,–,–,–,–,–
URB2 (UniProt Q14146),1.07 ± 0.025,1.07 ± 0.061,1.21 ± 0.1,1.36 ± 0.15,1.61 ± 0.058,1.68 ± 0.11,2.04 ± 0.16,2.19 ± 0.46
PSMD6 (UniProt Q15008),0.991 ± 0.0067,0.971 ± 0.025,0.959 ± 0.015,0.9 ± 0.021,0.893 ± 0.022,0.889 ± 0.048,0.921 ± 0.032,0.886 ± 0.025
TBC1D25 (UniProt Q3MII6),1.02 ± 0.051,0.89 ± 0.099,0.982 ± 0.059,1.04 ± 0.11,1.05 ± 0.16,0.962 ± 0.095,1.01 ± 0.14,1 ± 0.15
UniProt Q16659,0.995 ± 0.045,0.944 ± 0.11,–,–,–,–,–,–
LAGE3 (UniProt Q14657),0.982 ± 0.056,0.903 ± 0.044,0.907 ± 0.071,0.909 ± 0.073,0.901 ± 0.029,0.881 ± 0.072,0.903 ± 0.034,0.882 ± 0.011
UniProt Q32P28 and related entries,1.03 ± 0.047,1.07 ± 0.062,1.13 ± 0.023,1.15 ± 0.025,1.2 ± 0.077,1.19 ± 0.043,1.22 ± 0.051,1.198 ± 0.0094
PPP2R5A (UniProt Q15172),1.04 ± 0.016,1.04 ± 0.015,–,–,–,–,–,–
UniProt Q14155-1,1.02 ± 0.011,1.03 ± 0.065,1 ± 0.011,0.9849 ± 0.0056,0.97 ± 0.013,1.02 ± 0.05,0.976 ± 0.024,0.962 ± 0.034
UniProt Q14498 and related entries,1.03 ± 0.027,1.42 ± 0.11,1.59 ± 0.14,1.72 ± 0.12,1.84 ± 0.12,1.93 ± 0.13,1.98 ± 0.15,2.02 ± 0.2
UniProt Q15370,0.915 ± 0.041,0.929 ± 0.079,–,–,–,–,–,–

# Full records as entered above. Order of values: NP40-soluble protein abundance (concentration: 0.1mM)	NP40-soluble protein abundance (concentration: 0.5mM)	NP40-soluble protein abundance (concentration: 1mM)	NP40-soluble protein abundance (concentration: 2mM)	NP40-soluble protein abundance (concentration: 4mM)	NP40-soluble protein abundance (concentration: 6mM)	NP40-soluble protein abundance (concentration: 8mM)	NP40-soluble protein abundance (concentration: 10mM)
# UniProt Q16611 and related entries is listed as 0.951 ± 0.034	0.91 ± 0.1	1.01 ± 0.036	0.985 ± 0.023	1.02 ± 0.09	1.05 ± 0.045	0.997 ± 0.077	0.993 ± 0.087
# UniProt Q14289 and related entries is listed as 1.04 ± 0.036	1.06 ± 0.072	1.03 ± 0.04	1.04 ± 0.042	1.02 ± 0.04	0.981 ± 0.06	1.01 ± 0.04	1 ± 0.064

# From the supplement of paper PMC6411743
